From PubChem BioAssay AID1259415 (National Center for Advancing Translational Sciences (NCATS), 2018)
Out of some 410,000 compounds screened, about 18,000 (4.4%) were called active. Inconclusive results, whose numbers are uncertain, are shown with a selection of clear calls. No stated cut-off is given here; in the data, active means activity change below about -60%; inconclusive means no clear call, values can overlap the other calls; inactive means above about -39%.

Experiment: qHTS Assay for inhibitors of the human cytomegalovirus (HCMV)
Settings: HFF cells, HCMV-luciferase reporter, 72 h; at 57.5 µM; stronger effect = lower value
How it was run: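 Compounds were evaluated in HFFs infected with an HCMV luciferase reporter virus (MOI 1 PFU/cell). Luciferase in lysates collected 72 h post infection served as the replication measure.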
On the % scale 0 is the no-effect control and ±100 the full control effect.

Compound | activity change, negative = inhibition
Cc1ccc(C)c(CN2C(=O)c3ccccc3S(=O)(=O)c3ccc(C(=O)N4CCOCC4)cc32)c1 | inconclusive: -46.3%
CCC(=O)/C=C1\Sc2ccccc2N1CC | active: -68.7%
COc1cccc(CN2CCN(C3CSCCSC3)CC2CCO)c1 (centres undefined) | inconclusive: -40.4%
CC1=CC(=O)C=C(C)C1=NOC(=O)/C=C\c1ccccc1 | inconclusive: -48.2%
Cc1ccc(N2C(=O)NC(=O)/C(=C/C=C/c3ccco3)C2=O)cc1 | active: -98.3%
Cc1ccc(NC(=O)c2sc3nc(N)c(C#N)cc3c2N)cc1 | inconclusive: -40.7%
COc1ccccc1C1=Nn2c(nnc2C2CCCCC2)SC1 | inconclusive: -50.4%
CCN(CC)c1ccc2cc(C(=O)NNC(=O)c3ccc(S(=O)(=O)N4CCCCC4)cc3)c(=O)oc2c1 | inconclusive: -51.8%
O=C(COc1ccc(C(=O)c2ccccc2)cc1)NC1CCCCCC1 | inconclusive: -57.1%
Cc1cc(-c2nnc(SCC(=O)Nc3nccs3)o2)no1 | inactive: 27.2%
C1CC(=NN=C2CCSCC2)CCS1 | inactive: 83.2%
Nc1ccnc(=O)[nH]1 | inconclusive: -43.2%
CCOC(=O)N/N=C(\C)c1cccs1 | inactive: 13%
NC(=O)CCC(NC(=O)c1ccc(Cl)cc1)C(=O)NCCc1ccc2c(c1)OCCO2 (centres undefined) | inactive: -18.8%
CCC(=O)Nc1nc(-c2cc([N+](=O)[O-])cs2)cs1 | inconclusive: -45.5%
COC(=O)c1sc2nc(-c3ccccc3)c3c(c2c1N)CCCC3 | inconclusive: -51.5%
O=C(CSc1cc(Cl)ccc1Cl)NCCCn1ccnc1 | inconclusive: -48.4%
C/C(=N/Nc1nc(C)cc(-c2ccccc2)n1)c1ccco1 | inactive: 41.7%
Cc1ccc(NC(=O)c2sc3nc(C)nc(N4CCN(c5ccccn5)CC4)c3c2C)c(C)c1 | inconclusive: -46.2%
Cc1nc2ccccn2c1C(=O)/C=C/c1ccc(F)cc1 | inactive: 78.7%
CC(C)CC(=O)NC(=S)N1CCN(c2ccc([N+](=O)[O-])cc2Cl)CC1 | active: -67.2%
Cc1ccc(S(=O)(=O)N(CC(=O)NC2CCCC2)c2cccc(C)c2)cc1 | inconclusive: -44.2%

Compound | activity change, negative = inhibition
S=c1nc2ccccc2c2nc(-c3ccccc3)[nH]n12 | inactive: 81%
CCNc1nc(NC(C)C)nc(NC(C)(C)C)n1 | inactive: -32.4%
Cc1oc2c(CN3CCOCC3)c(O)ccc2c(=O)c1-c1ccccc1 | inconclusive: -50.4%
COc1ccc(CN2CCCC(C(=O)Nc3cccc(-n4cnnn4)c3)C2)c(C)c1C (centres undefined) | inconclusive: -48.6%
CC[C@]12CCCN3CCc4c(n(c5ccccc45)C(=O)C1)[C@@H]32 | inactive: 47.2%
CC(C)Sc1cc(N2CCCC2)nc(-c2ccccc2)n1 | inactive: -26.1%
COC(=O)CNC(c1ccccc1)c1cc(Br)ccc1NC(=O)CCN1CCOCC1 (centres undefined) | inconclusive: -41.7%
CCOC(=O)c1sc(NC(=O)CS(=O)(=O)c2ccc(C)cc2)nc1C | inconclusive: -45.7%
COc1ccc(-c2cc(C(C)=O)c(C)n2CCC(=O)NCc2ccc(F)cc2)cc1 | inconclusive: 0%
O=C1/C(=C/c2cccnc2)SC(=S)N1C1CCS(=O)(=O)C1 (centres undefined) | inconclusive: -57.6%
CCCC(=O)Nc1nnc(/C=C/c2ccc(OC)cc2)s1 | inactive: 15.7%
CC(=O)c1ccccc1-c1csc2ncnc(Sc3nnnn3C)c12 | inconclusive: -59.3%
CC1(C(=O)Nc2ccc3nc[nH]c3c2)CCN1C(=O)c1ccccc1CCc1ccccc1 (centres undefined) | inconclusive: -49.2%
C[C@@H]1CCC(=O)N(CC[C@H](Oc2ccccc2)c2ccccc2)CC1 | active: -64.5%
Cc1ccc(S(=O)(=O)NC(N)=NCCc2ccccc2)cc1C | inconclusive: -55.9%
Cc1ccccc1CSCCNC(=S)Nc1ccccc1 | active: -82.7%
CCOc1ccc(/C=C(\C(=O)O)c2ccc(S(=O)(=O)N3CCOCC3)s2)cc1OC | inconclusive: -45.2%
CC(=O)Nc1ccc(C(=O)CSc2ncn(-c3ccccc3)n2)cc1 | inactive: 79.8%
Oc1oc(-c2ccccc2)nc1C=NCc1ccccc1 | inconclusive: -52.3%
CC(C)(C)c1ccc(Oc2cccc(C3CC(=O)C(C4NCCc5ccccc54)C(=O)C3n3cncn3)c2)cc1 (centres undefined) | inconclusive: -41.5%
Cc1cc(NCc2cccnc2)no1 | inconclusive: -46.1%
CCOC(=O)C1=C[C@@H](C(C)(C)C)N(S(=O)(=O)c2ccc([N+](=O)[O-])cc2)[C@H]1c1cccc(Cl)c1 | inconclusive: -59.8%

Copied from above, 4 compounds:
Compound | activity change, negative = inhibition
COc1ccc(-c2cc(C(C)=O)c(C)n2CCC(=O)NCc2ccc(F)cc2)cc1 | inconclusive: 0%
O=C1/C(=C/c2cccnc2)SC(=S)N1C1CCS(=O)(=O)C1 (centres undefined) | inconclusive: -57.6%
CCCC(=O)Nc1nnc(/C=C/c2ccc(OC)cc2)s1 | inactive: 15.7%
CC(=O)c1ccccc1-c1csc2ncnc(Sc3nnnn3C)c12 | inconclusive: -59.3%
